Experimental data taken from PubChem BioAssay AID662 (National Center for Advancing Translational Sciences (NCATS), 2007).
This is one part of the list. These are further read-outs of the screen, such as a control signal, another cell line or another target. No call is given for them. Compounds called inactive in the main read-out are mostly missing here. The note in brackets gives the kind of curve behind each potency; many fits are weak.

Experiment: Cell signaling CRE-BLA (Fsk stim)
Conditions: CHO CRE-bla reporter (cAMP response element driving beta-lactamase), forskolin EC10, beta-lactamase ratio; measured here: 460 nm blue channel
In short: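 Cells were plated overnight at 37 °C, exposed to compound titrations plus EC10 NKH 477 for 3 h, then given CCF4 dye for 2 h at room temperature. Blue/green (460/530 nm) ratio was converted to %Activity and AC50 values calculated.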

Compound | AC50
CCOc1ccc(S(=O)(=O)NCCC(=O)OCN2C(=O)c3ccccc3C2=O)cc1 | 5.01 µM [falling, single point]
CCOC(=O)c1cc2c(ccn2-c2ccc(F)cc2)n1CC(=O)N1CCN(C(=O)c2ccco2)CC1 | 2 µM [rising, partial curve]
Cc1cc2nc(-c3ccc(SCC(=O)N4CCN(C(=O)c5ccco5)CC4)nc3)[nH]c2cc1C | 2 µM [rising, partial curve]
COc1ccc(-n2c(=O)c(-c3cc(F)cc(F)c3)nc3cnc(N4CCOCC4)nc32)cc1 | 2.51 µM [rising, full curve]
Cc1noc(C)c1COC(=O)Cc1ccc(Cl)cc1 | 0.2 µM [falling, partial curve]
CC(C)c1nnc(SCC(=O)NCc2ccco2)n1C | 0.00316 µM [falling, full curve, poor fit]
Fc1cc2nc(-c3ccncc3)[nH]c2cc1F | 20 µM [rising, single point]
Cc1cccc(-c2nc(C#N)c(N3CCCCCC3)o2)c1 | 7.94 µM [rising, partial curve]
CCC(C)C(=O)Nc1cc(C(=O)OC)cc(C(=O)OC)c1 (stereo not drawn) | 12.6 µM [rising, partial curve]
C/C=C/Cn1c(SCc2ccc(C)cc2)nc2c1c(=O)[nH]c(=O)n2C | 15.8 µM [rising, partial curve]
COC(=O)COC(=O)c1ccc(Oc2nc(OC)nc(N(C)C)n2)cc1 | 20 µM [rising, single point]
Cc1cc(Nc2ccc(F)cc2Cl)n2nc(C)nc2n1 | 10 µM [rising, partial curve]
NC(=O)c1ccsc1NC(=O)COC(=O)C1CCCN1C(=O)c1cccs1 (stereo not drawn) | 2 µM [rising, single point]
CCn1c(C)c(CCC(=O)O)c(=O)n2nc(-c3ccccc3OC)cc12 | 25.1 µM [falling, single point]
Fc1ccccc1N1CCN(C(c2cccs2)c2nnnn2CCc2ccccc2)CC1 (stereo not drawn) | 12.6 µM [falling, partial curve, poor fit]
COc1ccccc1CCn1c(=O)c(-c2cccc(Cl)c2)nc2cncnc21 | 6.31 µM [rising, partial curve]
Cc1ccc2c(c1)c(-c1ccccc1)nc1nncn12 | 10 µM [rising, partial curve]
Cc1cc(C)c2cc(CN(Cc3cccs3)Cc3nnnn3CC3CCCO3)c(=O)[nH]c2c1 (stereo not drawn) | 10 µM [rising, single point]
CCOC(=O)c1cc(-c2ccc(N)cc2)sc1N | 12.6 µM [rising, single point]
CCCn1c(Sc2nnnn2-c2ccccc2)n[nH]c1=O | 1 µM [falling, partial curve, poor fit]
O=C(NCc1ccco1)c1cc2sccc2n1Cc1ccc(F)cc1 | 20 µM [falling, single point]
COc1ccc(CCNC(=O)c2nnn(-c3ccc4c(c3)OCCO4)c2N)cc1OC | 3.16 µM [rising, partial curve]

Compound | AC50
c1ccc(Cn2nnc3c(N4CCCCCC4)ncnc32)cc1 | 2.51 µM [rising, full curve]
O=C(OCc1nc2ccccc2s1)c1cccc(S(=O)(=O)N2CCOCC2)c1 | 5.01 µM [falling, single point]
CC1=C(C)CS(=O)N(c2ccc(S(N)(=O)=O)cc2)C1 (stereo not drawn) | 2 µM [falling, full curve]
COCCCNC(=O)c1c(N)n(-c2cccc(S(N)(=O)=O)c2)c2nc3ccccc3nc12 | 12.6 µM [rising, partial curve]
CCn1c2ccccc2c2nnc(SCc3ccccc3)nc21 | 3.16 µM [rising, partial curve]
CCOC(=O)c1ccccc1NC(=O)CN1C(=O)CCS(=O)(=O)c2ccccc21 | 0.251 µM [falling, partial curve]
CCOC(=O)CCC(=O)OCC(=O)NC(C)C1CC2CCC1C2 (stereo not drawn) | 3.98 µM [falling, single point]
O=C(NC1=NCCS1)NC12CC3CC(CC(C3)C1)C2 | 3.16 µM [falling, partial curve]
O=C(CSc1nnc(-c2cccs2)n1Cc1ccco1)Nc1ccc2c(c1)OCO2 | 5.01 µM [falling, single point]
COc1ccc(-c2nc3cnc(Nc4cccc(OC)c4)nc3n(C)c2=O)cc1 | 7.94 µM [rising, partial curve]
COc1ccccc1N1CCN(C(=O)c2cc(-c3ccc(Br)cc3)on2)CC1 | 15.8 µM [falling, partial curve, poor fit]
C=CCn1c2ccccc2c2nnc(SC(CC)C(=O)Nc3nc(C)c(C(=O)OCC)s3)nc21 (stereo not drawn) | 0.631 µM [rising, full curve]
COC(=O)Cn1c(=NC(=O)CSCC(=O)NC2CCCCC2)sc2cc(OC)ccc21 | 0.158 µM [falling, full curve]
C=CCc1c(C)nc(SC)nc1Nc1ccc(C(=O)O)cc1 | 10 µM [rising, partial curve]
CCCCNc1nc(C)nc2c1nc(C)n2CCC | 10 µM [rising, partial curve]
CC(C)Sc1nc(-c2cccs2)nc2c1c(=O)n(C)c(=O)n2C | 2.51 µM [rising, full curve]
Cc1cc(O)c2c(-c3ccccc3)cc(=O)oc2c1 | 25.1 µM [rising, single point]
O=C(Nc1cccc(O)c1)c1ccc(Br)cc1 | 15.8 µM [rising, partial curve, poor fit]
Oc1cc2c(cc1O)[C@H]1c3ccc(O)c(O)c3OC[C@@]1(O)C2 | 31.6 µM [falling, single point]
COC(=O)c1[nH]c2ccc(C)cc2c1NC(=O)CN1CCN(c2ccccc2)CC1 | 7.94 µM [falling, partial curve]
CC(Sc1nc(N2CCOCC2)c2c(c1C#N)CC(C)(C)OC2)C(=O)Nc1ccccc1 (stereo not drawn) | 10 µM [rising, partial curve]

Laid out differently: 3 of the compounds above
Compound,AC50
Cc1noc(C)c1COC(=O)Cc1ccc(Cl)cc1,"0.2 µM [falling, partial curve]"
Cc1cccc(-c2nc(C#N)c(N3CCCCCC3)o2)c1,"7.94 µM [rising, partial curve]"
COc1ccc(CCNC(=O)c2nnn(-c3ccc4c(c3)OCCO4)c2N)cc1OC,"3.16 µM [rising, partial curve]"
